Measured values taken from article PMC9986458.
For at least one entry, the source does not settle the construct or the ends of the probe. For some of these results: A negative result means that nothing was seen under these conditions.

Legend:
[1] = system: TcbZIP60 (Tanacetum cinerariifolium); test: EMSA; conditions: 10 uM FAM probe, band decreased by 50x unlabeled probe; EMSA with 10 uM FAM-labeled probe and 50-fold excess unlabeled competitor; pH and temperature not given; recombinant protein
[2] = system: TcbZIP60 (Tanacetum cinerariifolium); test: competition with a labelled probe; conditions: shifted band recovered, EMSA with 10 uM FAM-labeled probe and 50-fold excess unlabeled competitor, pH and temperature not given, recombinant protein, label: none (unlabeled competitor)

| Sequence | binding result [1] | further results |
| --- | --- | --- |
| CAACTAATCACACACCGCCACGTGTCCACCGTCCACCTACT (double strand) [Probe_proAOC] | binds |  |
| CAACTAATCACACACCGCTCTTCTTCCACCGTCCACCTACT (double strand) [mProbe_proAOC] |  | binding result ([2]; 50x unlabeled mutant vs FAM-proAOC): no binding |
| TTAAAAAGCAAAAAATGTAAAGTGCTAAGTGTTAAAAAAAAAATTATAT (double strand) [mProbe_proCHS] |  | binding result ([2]; 50x unlabeled mutant vs FAM-proCHS): no binding |
| TTTGAAGGCAAGTGATGTAAAGTGCTAAGTGTTAAGTCAATGATTATAT (double strand) [Probe_proCHS] | binds |  |
